In the supplement of paper PMC11732987, “Enantioselective OTUD7B fragment discovery through chemoproteomics screening and high-throughput optimisation” (Communications Chemistry, 2025):
Some of the results follow. The data scatter; read single values as rough.

What was measured:
[1] = compound: ClCC(=O)N[C@@H]1CCCc2ccccc12; test: log2 mean competition ratio of IA-DTB cysteine labelling (DMSO/compound) (log2 ratio); higher = stronger cysteine engagement by compound; conditions: treatment time: 4 h, cell line lysate: HEK293T
Protocol: (§1)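 IA-DTB competitive cysteine chemoproteomics in HEK293T RIPA lysate. Lysates were treated with compound 29 or 30 at 50 or 200 µM for 4 h, then IA-DTB (500 µM, 1 h), trypsin-digested, NeutrAvidin-enriched and analysed by diaPASEF. Competition ratio = intensity DMSO / intensity compound (n=4 treated, n=64 DMSO); binding: mean log2 CR ≥ 1 and p ≤ 0.05 plus QC filters. Target is the cysteine site.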

[2] = compound: ClCC(=O)N[C@H]1CCCc2ccccc12; test: as above; conditions: treatment time: 4 h, cell line lysate: HEK293T
Protocol: as §1

Target	log2 mean competition ratio ([1]; 50 µM)	log2 mean competition ratio ([1]; 200 µM)	log2 mean competition ratio ([2]; 50 µM)	log2 mean competition ratio ([2]; 200 µM)
RAB22A C120 (UniProt Q9UL26)	-0.164	0.0847	-0.206	0.0683
RAB32 C162 (UniProt Q13637)	-0.129	0.0217	0.224	0.105
RAB3GAP2 C608 (UniProt Q9H2M9)	0.365	0.748	-0.0975	0.713
PYGO1 C317	-0.462	-0.0192	-0.145	0.0788
PSMA6 C47 (UniProt P60900)	0.191	-0.0259	0.526	-0.118
RACGAP1 C419 (UniProt Q9H0H5)	0.201	-0.171	-0.255	-0.421
RAB4A C28 (UniProt P20338)	-0.182	0.451	-0.53	0.492
PTDSS1 C419 (UniProt P48651)	0.00293	-0.093	0.521	-0.0393
PRRC2B C726	0.357	0.07	0.156	0.215
RAD1 C239 (UniProt O60671)	0.1	-0.00327	0.241	-0.12
RAD54L2 C471 (UniProt Q9Y4B4)	0.118	0.28	-0.0421	0.0704
RAD54B C227 (UniProt Q9Y620)	-0.0105	0.167	-0.26	0.108
RABL3 C180 (UniProt Q5HYI8)	-0.112	-0.00612	-0.347	0.122
PTRH1 C20 (UniProt Q86Y79)	-0.155	-0.107	-0.0504	-0.0501
PTPN9 C338 (UniProt P43378)	0.0811	-0.00532	-0.0037	0.0833
RAD51AP1 C254 (UniProt Q96B01)	0.0157	-0.049	0.29	0.0686
RAB11FIP1 C318 (UniProt Q6WKZ4)	0.28	0.201	-0.0436	-0.0787
RAC1 C178 (UniProt P63000)	-0.0206	-0.286	0.29	-0.242
PSMD4 C37	0.0739	-0.121	-0.247	-0.175
RAB3GAP2 C636 (UniProt Q9H2M9)	-0.289	0.23	-0.45	0.0633
RAB28 C31 (UniProt P51157)	0.0939	-0.0139	-0.407	0.158
PSMD2 C779 (UniProt Q13200)	0.0883	-0.0617	-0.325	-0.0942

Target	log2 mean competition ratio ([1]; 50 µM)	log2 mean competition ratio ([1]; 200 µM)	log2 mean competition ratio ([2]; 50 µM)	log2 mean competition ratio ([2]; 200 µM)
PSMC6 C347 (UniProt P62333)	0.0649	-0.165	0.149	-0.0291
RAB3GAP2 C828 (UniProt Q9H2M9)	-0.247	-0.342	-0.113	-0.15
RAD51C C68 (UniProt O43502)	0.104	-0.159	0.182	-0.166
PRR5 C318	0.253	-0.138	0.0485	0.123
QPRT C111 (UniProt Q15274)	-0.0118	0.207	0.595	0.0979
QTRT2 C324 (UniProt Q9H974)	0.131	0.139	0.0988	0.0137
PTRH2 C36 (UniProt Q9Y3E5)	0.0892	-1.22	0.0551	-0.735
QRSL1 C88 (UniProt Q9H0R6)	-0.0569	-0.135	0.175	-0.11
RAB10 C124 (UniProt P61026)	-0.0737	-0.224	-0.0686	-0.0353
RAB28 C169 (UniProt P51157)	0.244	-0.188	0.381	-0.27
RABGGTA C516 (UniProt Q92696)	0.372	0.0204	0.016	-0.0122
PSME1 C22 (UniProt Q06323)	-0.119	0.25	0.179	0.113
RAD54L2 C184 (UniProt Q9Y4B4)	0.098	-0.648	0.0867	-0.471
R3HCC1 C94 (UniProt Q9Y3T6+R3HCC1)	-0.00928	0.227	-0.104	0.264
PSMG1 C157 (UniProt O95456)	-0.135	-0.269	0.106	-0.188
PUS7 C38 (UniProt Q96PZ0)	-0.135	-0.0536	0.219	-0.0198
RAB3IP C389 (UniProt Q96QF0)	-0.117	-0.204	-0.0163	0.00105
PRUNE1 C8 (UniProt Q86TP1)	-0.0111	0.113	0.0118	0.491
QSER1 C283	-0.0318	0.0844	-0.172	0.0886
RAB3GAP1 C693 (UniProt Q15042)	-0.145	-0.176	-0.434	-0.098
PSMB2 C91	0.215	0.153	0.486	0.178
R3HCC1L C147	-0.216	0.286	-0.367	-0.0182

Another view of some results above:
Target,log2 mean competition ratio ([1]; 50 µM),log2 mean competition ratio ([1]; 200 µM),log2 mean competition ratio ([2]; 50 µM),log2 mean competition ratio ([2]; 200 µM)
R3HCC1 C94 (UniProt Q9Y3T6+R3HCC1),-0.00928,0.227,-0.104,0.264
PSMG1 C157 (UniProt O95456),-0.135,-0.269,0.106,-0.188
PUS7 C38 (UniProt Q96PZ0),-0.135,-0.0536,0.219,-0.0198
RAB3IP C389 (UniProt Q96QF0),-0.117,-0.204,-0.0163,0.00105
PRUNE1 C8 (UniProt Q86TP1),-0.0111,0.113,0.0118,0.491
QSER1 C283,-0.0318,0.0844,-0.172,0.0886
RAB3GAP1 C693 (UniProt Q15042),-0.145,-0.176,-0.434,-0.098
PSMB2 C91,0.215,0.153,0.486,0.178
R3HCC1L C147,-0.216,0.286,-0.367,-0.0182
